Results are given in words; binding and its absence hold for the method and conditions named. In cells and extracts the contact can be indirect. For part of these data: Binding calls can cover weak binding; strength is not graded here. Sequences can lack the tags named with a protein.

Binding data for two substances are collected here from publication PMC6637153.

For assay [1], the target named is T1, GFP-tagged GGA1t (human (cDNA cloned from HEK293 cells)) (UniProt Q9UJY5).
T1 sequence: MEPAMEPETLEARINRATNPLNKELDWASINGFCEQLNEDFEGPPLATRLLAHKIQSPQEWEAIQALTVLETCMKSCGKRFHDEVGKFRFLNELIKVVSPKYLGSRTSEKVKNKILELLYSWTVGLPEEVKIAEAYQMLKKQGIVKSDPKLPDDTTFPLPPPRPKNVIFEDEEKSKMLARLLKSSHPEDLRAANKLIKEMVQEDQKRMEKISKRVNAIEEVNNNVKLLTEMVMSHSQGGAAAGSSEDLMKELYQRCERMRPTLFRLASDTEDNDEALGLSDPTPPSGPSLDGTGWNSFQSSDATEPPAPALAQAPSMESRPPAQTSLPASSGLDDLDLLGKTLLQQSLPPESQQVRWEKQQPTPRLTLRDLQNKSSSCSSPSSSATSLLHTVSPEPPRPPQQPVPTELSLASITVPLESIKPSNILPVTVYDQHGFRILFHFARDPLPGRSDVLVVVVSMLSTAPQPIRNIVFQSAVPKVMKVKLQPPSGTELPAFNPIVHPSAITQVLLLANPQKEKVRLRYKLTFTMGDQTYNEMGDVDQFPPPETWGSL
In words: co-IP; HEK293 cells transfected with GFP-GGA1 or GFP-GGA1t; IP with anti-GFP antibodies; endogenous clathrin detected by blot with anti-clathrin antibodies.

For another assay, the target named is T2, GFP-tagged GGA1 (UniProt Q9UJY5).
T2 sequence: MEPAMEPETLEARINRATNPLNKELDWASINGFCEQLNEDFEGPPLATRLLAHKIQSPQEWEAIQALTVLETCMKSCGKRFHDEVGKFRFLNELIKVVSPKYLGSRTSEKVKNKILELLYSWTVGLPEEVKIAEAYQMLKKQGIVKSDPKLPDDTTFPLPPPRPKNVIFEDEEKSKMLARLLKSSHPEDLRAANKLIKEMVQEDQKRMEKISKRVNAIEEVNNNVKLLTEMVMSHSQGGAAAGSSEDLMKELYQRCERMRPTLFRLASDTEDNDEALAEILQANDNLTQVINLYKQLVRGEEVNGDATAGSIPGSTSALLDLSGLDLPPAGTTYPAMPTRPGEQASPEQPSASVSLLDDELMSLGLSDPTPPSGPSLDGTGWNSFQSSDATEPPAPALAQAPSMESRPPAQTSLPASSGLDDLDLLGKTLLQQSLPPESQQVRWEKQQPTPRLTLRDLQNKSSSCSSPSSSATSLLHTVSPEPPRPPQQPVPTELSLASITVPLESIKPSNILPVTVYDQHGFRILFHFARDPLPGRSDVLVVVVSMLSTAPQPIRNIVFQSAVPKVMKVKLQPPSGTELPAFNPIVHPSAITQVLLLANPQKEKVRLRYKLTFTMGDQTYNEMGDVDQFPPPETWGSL
The assay is described as above.

The target in assay [2] is T3, GST fusion protein of the third intracellular loop (ICL3, 205-369 residues) of α2B-adrenergic receptor (UniProt P19328).
T3 sequence: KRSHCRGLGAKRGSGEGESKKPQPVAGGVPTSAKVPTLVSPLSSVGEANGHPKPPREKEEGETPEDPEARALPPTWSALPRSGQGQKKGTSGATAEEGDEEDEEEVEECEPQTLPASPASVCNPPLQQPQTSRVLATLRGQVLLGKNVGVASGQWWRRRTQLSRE
In words: pull-down; GST fusion proteins tethered to glutathione resin incubated with total cell lysates of transfected HEK293 cells; 20 mM Tris-HCl pH 7.5, 1% NP-40, 140 mM NaCl, 1 mM MgCl2, 4 °C, 4-6 h; blot with anti-GFP or anti-myc; only the target purified.

With “clathrin (endogenous) (human (endogenous in HEK293))”, the binding entry in assay [1] was “no binding”; in the assay with GFP-tagged GGA1 it was “binds”.
As to “GFP-tagged GGA1t hinge domain (domain or fragment)”, in assay [2], the binding result is “no binding”.
